These are yes or no findings as the source states them, for the method shown. Binding seen in cells or lysates may run through a third protein. Some entries that bind do so weakly or less than the wild type.
Target: T1, Transcription factor-like 5 (mouse (endogenous in testis)) (UniProt Q32NY8)
T1 sequence: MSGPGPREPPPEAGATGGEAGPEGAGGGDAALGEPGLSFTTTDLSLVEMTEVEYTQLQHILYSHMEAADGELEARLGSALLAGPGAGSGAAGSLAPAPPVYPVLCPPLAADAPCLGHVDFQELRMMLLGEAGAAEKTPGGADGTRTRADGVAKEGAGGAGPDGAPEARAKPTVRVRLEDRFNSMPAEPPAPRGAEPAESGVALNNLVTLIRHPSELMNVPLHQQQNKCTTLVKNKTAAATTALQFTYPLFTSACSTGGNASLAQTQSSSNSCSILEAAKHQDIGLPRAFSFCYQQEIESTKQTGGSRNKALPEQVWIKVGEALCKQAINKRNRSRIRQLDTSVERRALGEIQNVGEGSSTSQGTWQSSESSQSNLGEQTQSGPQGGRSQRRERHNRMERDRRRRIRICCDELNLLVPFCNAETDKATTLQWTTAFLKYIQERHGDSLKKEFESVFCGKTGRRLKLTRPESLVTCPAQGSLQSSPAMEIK
Assay: co-IP

Sequences of proteins named here, by UniProt entry; tags and fusion partners are left off.
UniProt O70133: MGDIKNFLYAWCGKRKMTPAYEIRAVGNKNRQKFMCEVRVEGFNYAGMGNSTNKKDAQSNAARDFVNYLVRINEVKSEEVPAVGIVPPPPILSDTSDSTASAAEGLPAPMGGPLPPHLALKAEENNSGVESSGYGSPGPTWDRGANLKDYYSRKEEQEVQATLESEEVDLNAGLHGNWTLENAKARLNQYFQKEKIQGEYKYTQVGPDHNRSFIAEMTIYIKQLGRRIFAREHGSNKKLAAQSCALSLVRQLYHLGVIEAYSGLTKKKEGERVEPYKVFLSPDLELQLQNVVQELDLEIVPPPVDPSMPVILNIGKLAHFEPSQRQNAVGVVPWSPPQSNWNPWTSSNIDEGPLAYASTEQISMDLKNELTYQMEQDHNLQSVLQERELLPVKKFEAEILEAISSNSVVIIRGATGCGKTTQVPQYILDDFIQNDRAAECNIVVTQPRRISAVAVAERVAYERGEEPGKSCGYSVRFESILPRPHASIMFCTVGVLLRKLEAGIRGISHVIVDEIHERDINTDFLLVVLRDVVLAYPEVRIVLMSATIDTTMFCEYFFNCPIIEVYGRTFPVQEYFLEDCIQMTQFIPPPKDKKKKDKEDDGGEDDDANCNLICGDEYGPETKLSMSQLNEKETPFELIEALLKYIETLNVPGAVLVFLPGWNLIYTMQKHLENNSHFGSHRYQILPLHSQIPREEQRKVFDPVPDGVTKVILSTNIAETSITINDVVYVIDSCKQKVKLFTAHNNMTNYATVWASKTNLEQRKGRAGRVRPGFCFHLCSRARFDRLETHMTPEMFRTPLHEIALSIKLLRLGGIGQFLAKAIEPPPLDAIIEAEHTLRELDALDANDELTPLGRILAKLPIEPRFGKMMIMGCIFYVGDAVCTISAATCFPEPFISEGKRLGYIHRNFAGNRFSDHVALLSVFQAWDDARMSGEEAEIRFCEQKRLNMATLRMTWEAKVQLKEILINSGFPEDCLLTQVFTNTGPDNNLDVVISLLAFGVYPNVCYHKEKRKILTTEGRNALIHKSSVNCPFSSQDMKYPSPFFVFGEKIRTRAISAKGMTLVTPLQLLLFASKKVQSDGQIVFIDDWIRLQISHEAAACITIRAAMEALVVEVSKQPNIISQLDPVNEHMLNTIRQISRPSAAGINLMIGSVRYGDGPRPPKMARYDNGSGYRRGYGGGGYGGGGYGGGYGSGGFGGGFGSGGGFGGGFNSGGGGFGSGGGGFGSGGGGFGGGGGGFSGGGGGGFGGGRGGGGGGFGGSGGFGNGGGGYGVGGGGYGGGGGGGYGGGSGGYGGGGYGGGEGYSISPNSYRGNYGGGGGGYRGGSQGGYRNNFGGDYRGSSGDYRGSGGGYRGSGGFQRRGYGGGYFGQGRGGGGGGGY
UniProt Q61584: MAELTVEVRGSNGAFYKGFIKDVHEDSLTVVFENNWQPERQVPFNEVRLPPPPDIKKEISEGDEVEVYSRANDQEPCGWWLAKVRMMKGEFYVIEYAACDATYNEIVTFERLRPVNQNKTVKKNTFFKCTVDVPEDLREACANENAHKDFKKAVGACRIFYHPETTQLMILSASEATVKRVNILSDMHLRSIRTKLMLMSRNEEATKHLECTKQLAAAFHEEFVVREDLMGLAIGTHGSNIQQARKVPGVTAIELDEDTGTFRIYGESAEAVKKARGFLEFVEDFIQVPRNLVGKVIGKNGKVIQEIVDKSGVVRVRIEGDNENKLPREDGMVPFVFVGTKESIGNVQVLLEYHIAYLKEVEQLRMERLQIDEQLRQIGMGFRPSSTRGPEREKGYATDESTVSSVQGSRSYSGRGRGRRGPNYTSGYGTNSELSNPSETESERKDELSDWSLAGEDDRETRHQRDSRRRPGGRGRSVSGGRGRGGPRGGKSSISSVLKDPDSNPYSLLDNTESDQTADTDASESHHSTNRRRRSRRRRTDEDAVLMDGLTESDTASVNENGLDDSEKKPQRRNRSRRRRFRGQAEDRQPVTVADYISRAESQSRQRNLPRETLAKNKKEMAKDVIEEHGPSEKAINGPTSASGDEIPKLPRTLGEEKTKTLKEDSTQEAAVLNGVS

Row | binding | Substance
1 | binds | DExH-box helicase 9 (from UniProt O70133 1-1380)
2 | binds | fragile-X mental retardation syndrome-related protein 1 (from UniProt Q61584 1-677)

Reference: doi:10.1101/2021.06.17.448807
